Data on 18 targets can be found in the supplement of paper PMC12819154, “High-throughput peptide-centric local stability assay extends protein–ligand identification to membrane proteins, tissues and bacteria” (Nature Structural & Molecular Biology, 2025).

The chains behind the UniProt entries cited, without tags or fusion partners. Where a name states a change or a piece, a line headed by the entry shows the natural chain unless it says otherwise.
UniProt Q922Q2: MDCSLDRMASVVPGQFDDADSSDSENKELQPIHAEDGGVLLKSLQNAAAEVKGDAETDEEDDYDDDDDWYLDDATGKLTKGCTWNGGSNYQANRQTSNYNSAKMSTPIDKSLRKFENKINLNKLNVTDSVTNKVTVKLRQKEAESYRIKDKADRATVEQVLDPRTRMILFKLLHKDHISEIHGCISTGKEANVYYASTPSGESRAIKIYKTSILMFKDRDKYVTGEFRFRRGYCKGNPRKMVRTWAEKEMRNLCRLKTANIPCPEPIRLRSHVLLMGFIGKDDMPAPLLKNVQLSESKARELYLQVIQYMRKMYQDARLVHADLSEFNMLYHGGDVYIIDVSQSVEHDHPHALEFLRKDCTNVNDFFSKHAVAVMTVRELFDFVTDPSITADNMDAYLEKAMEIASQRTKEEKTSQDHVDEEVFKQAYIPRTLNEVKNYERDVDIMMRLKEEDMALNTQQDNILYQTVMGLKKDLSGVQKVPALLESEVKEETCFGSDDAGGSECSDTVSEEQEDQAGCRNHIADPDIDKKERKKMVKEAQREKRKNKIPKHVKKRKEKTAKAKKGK
UniProt Q99LC9: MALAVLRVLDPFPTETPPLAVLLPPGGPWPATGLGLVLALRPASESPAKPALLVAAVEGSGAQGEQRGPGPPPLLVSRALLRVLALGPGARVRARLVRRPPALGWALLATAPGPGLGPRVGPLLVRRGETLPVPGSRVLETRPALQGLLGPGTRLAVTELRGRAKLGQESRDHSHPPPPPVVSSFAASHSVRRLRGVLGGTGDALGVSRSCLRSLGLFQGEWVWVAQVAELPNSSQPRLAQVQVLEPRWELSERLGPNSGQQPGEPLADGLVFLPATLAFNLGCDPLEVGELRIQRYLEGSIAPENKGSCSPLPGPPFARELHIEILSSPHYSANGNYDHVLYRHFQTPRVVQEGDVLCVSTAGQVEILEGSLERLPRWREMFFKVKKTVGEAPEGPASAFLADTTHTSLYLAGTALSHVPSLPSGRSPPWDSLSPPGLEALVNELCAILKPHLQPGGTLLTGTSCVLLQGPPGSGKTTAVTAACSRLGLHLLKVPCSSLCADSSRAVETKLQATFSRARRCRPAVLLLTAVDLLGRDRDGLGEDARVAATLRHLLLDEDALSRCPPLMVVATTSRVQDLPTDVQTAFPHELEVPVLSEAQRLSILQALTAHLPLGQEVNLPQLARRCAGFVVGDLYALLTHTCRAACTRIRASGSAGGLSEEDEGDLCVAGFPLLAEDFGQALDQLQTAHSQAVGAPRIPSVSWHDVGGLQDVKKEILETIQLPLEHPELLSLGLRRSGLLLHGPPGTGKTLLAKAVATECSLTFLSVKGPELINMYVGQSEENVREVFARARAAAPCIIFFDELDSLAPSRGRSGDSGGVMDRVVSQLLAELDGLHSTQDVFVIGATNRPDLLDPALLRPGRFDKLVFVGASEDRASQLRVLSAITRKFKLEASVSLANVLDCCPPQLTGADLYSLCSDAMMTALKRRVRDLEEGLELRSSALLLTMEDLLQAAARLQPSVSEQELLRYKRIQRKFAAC
UniProt Q922H9: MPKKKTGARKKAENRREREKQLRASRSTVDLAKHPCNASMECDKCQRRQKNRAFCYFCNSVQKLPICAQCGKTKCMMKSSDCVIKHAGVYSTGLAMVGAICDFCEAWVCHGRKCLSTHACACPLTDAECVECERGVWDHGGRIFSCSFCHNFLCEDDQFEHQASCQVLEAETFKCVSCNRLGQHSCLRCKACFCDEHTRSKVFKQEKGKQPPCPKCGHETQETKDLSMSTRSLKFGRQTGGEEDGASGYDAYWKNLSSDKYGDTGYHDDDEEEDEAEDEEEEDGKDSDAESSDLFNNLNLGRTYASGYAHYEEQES
UniProt Q922R1: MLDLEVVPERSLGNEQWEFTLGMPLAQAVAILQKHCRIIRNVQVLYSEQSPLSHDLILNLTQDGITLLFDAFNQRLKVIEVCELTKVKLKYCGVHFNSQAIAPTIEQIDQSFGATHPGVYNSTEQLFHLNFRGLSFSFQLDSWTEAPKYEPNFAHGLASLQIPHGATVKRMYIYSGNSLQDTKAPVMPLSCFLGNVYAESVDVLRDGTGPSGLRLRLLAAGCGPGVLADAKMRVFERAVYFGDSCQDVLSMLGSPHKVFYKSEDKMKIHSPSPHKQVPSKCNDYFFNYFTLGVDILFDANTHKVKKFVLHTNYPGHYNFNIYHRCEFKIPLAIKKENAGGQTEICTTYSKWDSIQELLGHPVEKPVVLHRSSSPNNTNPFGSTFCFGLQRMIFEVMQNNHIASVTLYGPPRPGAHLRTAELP
UniProt Q924N4: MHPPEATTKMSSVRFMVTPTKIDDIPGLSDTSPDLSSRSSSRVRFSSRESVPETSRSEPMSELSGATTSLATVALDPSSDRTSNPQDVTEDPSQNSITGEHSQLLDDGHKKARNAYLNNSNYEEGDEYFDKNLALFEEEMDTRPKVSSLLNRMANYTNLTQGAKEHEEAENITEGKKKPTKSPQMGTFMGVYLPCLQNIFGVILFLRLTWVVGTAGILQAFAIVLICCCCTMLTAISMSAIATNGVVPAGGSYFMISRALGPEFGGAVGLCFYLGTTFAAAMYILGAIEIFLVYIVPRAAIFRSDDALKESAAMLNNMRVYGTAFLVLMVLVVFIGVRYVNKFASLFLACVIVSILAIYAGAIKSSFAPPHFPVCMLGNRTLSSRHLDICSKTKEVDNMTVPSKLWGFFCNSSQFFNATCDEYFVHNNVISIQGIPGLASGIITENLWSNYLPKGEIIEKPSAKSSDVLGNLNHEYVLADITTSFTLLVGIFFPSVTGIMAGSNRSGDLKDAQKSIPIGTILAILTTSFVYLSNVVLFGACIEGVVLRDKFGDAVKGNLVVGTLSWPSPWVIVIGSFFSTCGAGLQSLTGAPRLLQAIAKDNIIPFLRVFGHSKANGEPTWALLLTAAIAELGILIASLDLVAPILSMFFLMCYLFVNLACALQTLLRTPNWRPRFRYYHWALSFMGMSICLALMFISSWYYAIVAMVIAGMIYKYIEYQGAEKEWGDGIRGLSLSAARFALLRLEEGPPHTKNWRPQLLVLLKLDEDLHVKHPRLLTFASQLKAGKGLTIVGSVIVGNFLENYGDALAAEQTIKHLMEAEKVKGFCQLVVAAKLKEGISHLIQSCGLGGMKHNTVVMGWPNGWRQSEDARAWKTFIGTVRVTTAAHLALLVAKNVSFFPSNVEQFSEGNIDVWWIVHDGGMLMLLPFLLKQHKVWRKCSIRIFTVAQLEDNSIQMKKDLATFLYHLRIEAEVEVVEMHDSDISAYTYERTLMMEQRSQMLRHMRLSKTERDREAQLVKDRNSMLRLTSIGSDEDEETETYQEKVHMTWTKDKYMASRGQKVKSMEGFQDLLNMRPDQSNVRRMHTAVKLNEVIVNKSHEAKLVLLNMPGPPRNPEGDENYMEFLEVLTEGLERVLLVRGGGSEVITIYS
UniProt Q922Q1: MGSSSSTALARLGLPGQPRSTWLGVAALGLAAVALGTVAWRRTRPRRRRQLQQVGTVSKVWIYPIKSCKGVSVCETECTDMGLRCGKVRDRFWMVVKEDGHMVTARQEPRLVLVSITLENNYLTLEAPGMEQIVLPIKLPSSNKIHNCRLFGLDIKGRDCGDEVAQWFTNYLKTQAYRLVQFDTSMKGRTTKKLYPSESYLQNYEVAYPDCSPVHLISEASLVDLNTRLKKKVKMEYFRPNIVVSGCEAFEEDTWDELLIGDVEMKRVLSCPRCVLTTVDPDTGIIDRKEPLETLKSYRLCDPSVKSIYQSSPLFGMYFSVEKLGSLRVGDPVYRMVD
UniProt Q924Z4: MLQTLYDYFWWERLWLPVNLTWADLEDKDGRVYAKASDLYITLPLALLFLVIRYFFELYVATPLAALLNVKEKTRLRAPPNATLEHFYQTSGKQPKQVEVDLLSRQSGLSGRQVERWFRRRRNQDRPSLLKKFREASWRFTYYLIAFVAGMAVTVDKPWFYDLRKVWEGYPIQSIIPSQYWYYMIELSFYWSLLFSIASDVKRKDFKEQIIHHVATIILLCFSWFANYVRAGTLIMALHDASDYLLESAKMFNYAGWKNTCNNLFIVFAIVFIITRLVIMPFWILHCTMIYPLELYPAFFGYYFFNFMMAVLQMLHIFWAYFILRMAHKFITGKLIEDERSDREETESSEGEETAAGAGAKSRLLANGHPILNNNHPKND
UniProt Q99L43: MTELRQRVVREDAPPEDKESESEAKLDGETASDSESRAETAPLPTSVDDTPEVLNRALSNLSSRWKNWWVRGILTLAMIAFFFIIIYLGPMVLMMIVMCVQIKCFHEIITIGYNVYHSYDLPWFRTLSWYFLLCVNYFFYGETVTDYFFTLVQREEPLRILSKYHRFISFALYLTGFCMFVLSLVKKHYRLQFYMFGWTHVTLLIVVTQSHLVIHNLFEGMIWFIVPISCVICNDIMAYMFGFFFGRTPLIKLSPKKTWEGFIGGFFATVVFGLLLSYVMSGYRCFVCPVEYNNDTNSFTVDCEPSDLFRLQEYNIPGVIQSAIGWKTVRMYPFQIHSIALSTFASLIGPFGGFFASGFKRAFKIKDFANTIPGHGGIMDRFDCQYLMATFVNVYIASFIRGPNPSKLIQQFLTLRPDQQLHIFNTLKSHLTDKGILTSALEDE
UniProt Q921L7: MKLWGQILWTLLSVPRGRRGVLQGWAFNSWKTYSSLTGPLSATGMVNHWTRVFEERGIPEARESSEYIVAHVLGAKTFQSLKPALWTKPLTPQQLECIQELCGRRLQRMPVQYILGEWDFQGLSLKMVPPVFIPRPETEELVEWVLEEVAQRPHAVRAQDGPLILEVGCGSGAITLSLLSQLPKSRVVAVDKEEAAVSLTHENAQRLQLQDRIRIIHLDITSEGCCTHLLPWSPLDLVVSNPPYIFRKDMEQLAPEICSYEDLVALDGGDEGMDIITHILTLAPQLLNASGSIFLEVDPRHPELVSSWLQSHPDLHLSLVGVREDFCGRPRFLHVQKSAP
UniProt Q99K90: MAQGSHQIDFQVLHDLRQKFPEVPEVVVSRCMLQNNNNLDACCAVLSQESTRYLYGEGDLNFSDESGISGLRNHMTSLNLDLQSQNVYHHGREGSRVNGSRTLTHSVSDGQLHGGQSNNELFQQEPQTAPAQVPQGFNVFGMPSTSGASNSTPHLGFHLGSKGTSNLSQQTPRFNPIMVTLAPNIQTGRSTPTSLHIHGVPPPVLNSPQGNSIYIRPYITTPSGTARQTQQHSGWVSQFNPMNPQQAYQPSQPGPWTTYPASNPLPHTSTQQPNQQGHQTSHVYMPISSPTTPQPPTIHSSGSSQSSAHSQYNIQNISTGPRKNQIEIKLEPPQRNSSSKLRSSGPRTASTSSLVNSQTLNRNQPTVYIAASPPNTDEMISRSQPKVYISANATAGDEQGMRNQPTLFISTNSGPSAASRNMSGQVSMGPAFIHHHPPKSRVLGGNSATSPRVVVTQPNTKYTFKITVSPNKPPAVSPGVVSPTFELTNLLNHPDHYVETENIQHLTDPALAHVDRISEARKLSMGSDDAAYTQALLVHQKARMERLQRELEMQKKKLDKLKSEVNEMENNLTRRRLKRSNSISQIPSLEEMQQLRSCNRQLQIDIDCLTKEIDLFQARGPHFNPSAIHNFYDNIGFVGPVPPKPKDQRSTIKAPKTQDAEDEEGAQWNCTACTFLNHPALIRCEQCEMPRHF
UniProt Q922U1: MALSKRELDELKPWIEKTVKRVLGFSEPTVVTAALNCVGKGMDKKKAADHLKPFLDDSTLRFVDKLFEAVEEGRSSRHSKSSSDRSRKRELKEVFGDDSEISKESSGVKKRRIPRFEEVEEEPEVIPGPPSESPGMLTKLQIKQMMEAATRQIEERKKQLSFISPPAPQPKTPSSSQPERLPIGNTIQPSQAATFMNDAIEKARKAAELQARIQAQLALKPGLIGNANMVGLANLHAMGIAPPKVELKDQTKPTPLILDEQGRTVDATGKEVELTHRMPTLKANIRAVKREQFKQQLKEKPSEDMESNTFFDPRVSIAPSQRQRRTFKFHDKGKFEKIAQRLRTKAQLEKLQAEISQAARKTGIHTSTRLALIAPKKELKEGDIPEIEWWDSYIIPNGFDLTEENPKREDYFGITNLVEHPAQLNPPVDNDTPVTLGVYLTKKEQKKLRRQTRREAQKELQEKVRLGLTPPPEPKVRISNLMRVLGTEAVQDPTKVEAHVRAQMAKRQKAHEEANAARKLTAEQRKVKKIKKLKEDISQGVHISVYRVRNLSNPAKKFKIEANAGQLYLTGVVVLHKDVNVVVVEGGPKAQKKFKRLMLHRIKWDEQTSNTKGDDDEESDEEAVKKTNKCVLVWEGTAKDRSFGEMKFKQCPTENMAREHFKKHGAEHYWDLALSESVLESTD
UniProt Q99KC7: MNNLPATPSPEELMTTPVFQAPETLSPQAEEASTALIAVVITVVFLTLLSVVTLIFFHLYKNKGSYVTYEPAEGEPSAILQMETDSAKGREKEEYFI

The list shows a part of the results. Small differences around the control level are noise.

Compound in the experiment: CN[C@@H]1C[C@H]2O[C@@](C)([C@@H]1OC)n1c3ccccc3c3c4c(c5c6ccccc6n2c5c31)C(=O)NC4 [staurosporine]
As to the kind of experiment: log2 fold change of tryptic peptide abundance, ligand vs vehicle (limited proteolysis) (log2 ratio); higher = more trypsin-susceptible (destabilized). The settings on record: ligand concentration: 20 uM; sample: mouse liver crude lysate; replicate design: treated separately.
For the target “UniProt Q922Q2 (peptide sequence: LNVTDSVTNK, peptide start residue: 124)”, the log2 fold change is -0.173.

For the target “UniProt Q99LC9 (peptide sequence: IPSVSWHDVGGLQDVK, peptide start residue: 700)”, the log2 fold change was -0.185.

As for “UniProt Q922H9 (peptide sequence: CGHETQETK, peptide start residue: 216)”, the log2 fold change is -0.505.

For the target “UniProt Q922R1 (peptide sequence: MLDLEVVPER, peptide start residue: 1)”, the log2 fold change is -0.364.

Turning to “UniProt Q99KW3 (peptide sequence: HNQELHSHLSEEIDRLR, peptide start residue: 1893)”, the log2 fold change was -0.267.

Consider “UniProt Q924N4 (peptide sequence: TLMMEQR, peptide start residue: 926)”, for which the log2 fold change worked out at 0.123.

As for “UniProt Q922Q1 (peptide sequence: CVLTTVDPDTGIIDRK, peptide start residue: 274)”, the log2 fold change is 0.193.

Take “UniProt Q924Z4 (peptide sequence: APPNATLEHFYQTSGK, peptide start residue: 78)”: the log2 fold change is 0.228.

Regarding “UniProt Q99L43 (peptide sequence: LDGETASDSESR, peptide start residue: 26)”, the log2 fold change came out at 0.222.

Take “UniProt Q922B2 (peptide sequence: VFCIGPVFR, peptide start residue: 265)”: the log2 fold change was 0.129.

Consider “UniProt Q921L7 (peptide sequence: ESSEYIVAHVLGAK, peptide start residue: 63)”, for which the log2 fold change is -0.199.

On to “UniProt Q99K90 (peptide sequence: EIDLFQAR, peptide start residue: 612)”, for which the log2 fold change is -0.139.

“UniProt Q99J62 (peptide sequence: TSTILAAAR, peptide start residue: 85)”: the log2 fold change amounted to 0.431.

For the target “UniProt Q922J3 (peptide sequence: VMAATPASLKR, peptide start residue: 298)”, the log2 fold change is 0.471.

Take “UniProt Q922U1 (peptide sequence: FHDKGKFEK, peptide start residue: 329)”: the log2 fold change is 0.379.

For “UniProt Q99KC7 (peptide sequence: GREKEEYFI, peptide start residue: 89)”, the log2 fold change was -0.119.

For “UniProt Q924H7 (peptide sequence: YSDSTGHNK, peptide start residue: 69)”, the log2 fold change is -0.8.

For the target “UniProt Q99KK7 (peptide sequence: STGDVVAGR, peptide start residue: 630)”, the log2 fold change is -0.246.
